Data reported in article doi:10.1101/2024.09.11.24313360.

Target: T1, UNC93B1 (WT)-BirA* (human) (UniProt Q9H1C4)
T1 sequence: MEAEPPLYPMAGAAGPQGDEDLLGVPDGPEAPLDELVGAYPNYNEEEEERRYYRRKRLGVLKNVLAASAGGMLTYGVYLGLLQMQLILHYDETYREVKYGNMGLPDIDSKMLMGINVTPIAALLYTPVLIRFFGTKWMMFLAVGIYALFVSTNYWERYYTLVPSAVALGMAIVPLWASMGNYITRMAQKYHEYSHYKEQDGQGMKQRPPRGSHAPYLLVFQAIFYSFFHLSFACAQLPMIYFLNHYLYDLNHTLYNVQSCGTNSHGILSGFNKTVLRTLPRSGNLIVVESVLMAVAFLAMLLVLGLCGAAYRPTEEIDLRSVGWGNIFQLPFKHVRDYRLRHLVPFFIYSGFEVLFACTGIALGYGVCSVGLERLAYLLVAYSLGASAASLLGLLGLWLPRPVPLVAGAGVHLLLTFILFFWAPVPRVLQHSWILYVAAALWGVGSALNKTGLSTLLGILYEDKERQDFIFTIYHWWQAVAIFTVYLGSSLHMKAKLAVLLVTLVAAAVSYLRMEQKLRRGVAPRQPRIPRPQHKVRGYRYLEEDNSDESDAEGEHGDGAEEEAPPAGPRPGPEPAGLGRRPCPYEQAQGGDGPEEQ
Test: proximity labelling

B1: endogenous TLR7 (cleaved forms) (receptor, UniProt P58681 27-1050)
chain: FRWFPKTLPCEVKVNIPEAHVIVDCTDKHLTEIPEGIPTNTTNLTLTINHIPSISPDSFRRLNHLEEIDLRCNCVPVLLGSKANVCTKRLQIRPGSFSGLSDLKALYLDGNQLLEIPQDLPSSLHLLSLEANNIFSITKENLTELVNIETLYLGQNCYYRNPCNVSYSIEKDAFLVMRNLKVLSLKDNNVTAVPTTLPPNLLELYLYNNIIKKIQENDFNNLNELQVLDLSGNCPRCYNVPYPCTPCENNSPLQIHDNAFNSLTELKVLRLHSNSLQHVPPTWFKNMRNLQELDLSQNYLAREIEEAKFLHFLPNLVELDFSFNYELQVYHASITLPHSLSSLENLKILRVKGYVFKELKNSSLSVLHKLPRLEVLDLGTNFIKIADLNIFKHFENLKLIDLSVNKISPSEESREVGFCPNAQTSVDRHGPQVLEALHYFRYDEYARSCRFKNKEPPSFLPLNADCHIYGQTLDLSRNNIFFIKPSDFQHLSFLKCLNLSGNTIGQTLNGSELWPLRELRYLDFSNNRLDLLYSTAFEELQSLEVLDLSSNSHYFQAEGITHMLNFTKKLRLLDKLMMNDNDISTSASRTMESDSLRILEFRGNHLDVLWRAGDNRYLDFFKNLFNLEVLDISRNSLNSLPPEVFEGMPPNLKNLSLAKNGLKSFFWDRLQLLKHLEILDLSHNQLTKVPERLANCSKSLTTLILKHNQIRQLTKYFLEDALQLRYLDISSNKIQVIQKTSFPENVLNNLEMLVLHHNRFLCNCDAVWFVWWVNHTDVTIPYLATDVTCVGPGAHKGQSVISLDLYTCELDLTNLILFSVSISSVLFLMVVMTTSHLFFWDMWYIYYFWKAKIKGYQHLQSMESCYDAFIVYDTKNSAVTEWVLQELVAKLEDPREKHFNLCLEERDWLPGQPVLENLSQSIQLSKKTVFVMTQKYAKTESFKMAFYLSHQRLLDEKVDVIILIFLEKPLQKSKFLQLRKRLCRSSVLEWPANPQAHPYFWQCLKNALTTDNHVAYSQMFKETV
  binding: binds

Results are given in words; binding and its absence hold for the method and conditions named. In cells and extracts the contact can be indirect. Here binding means that the protein was enriched with, or labelled near, the bait; the list need not be complete.
